According to publication doi:10.1101/2025.09.27.678987:
Results are given in words; binding and its absence hold for the method and conditions named. In cells and extracts the contact can be indirect. These calls come from enrichment with a bait or labelling near it, and not all partners need be listed. For part of these data: No binding means not detected with the bait. For part of these data: Where a sequence is shown, tags or fusion partners need not be part of it.

The chains behind the UniProt entries cited, without tags or fusion partners. Where a name states a change or a piece, a line headed by the entry shows the natural chain unless it says otherwise. Residues count along the entry.
UniProt Q8N371: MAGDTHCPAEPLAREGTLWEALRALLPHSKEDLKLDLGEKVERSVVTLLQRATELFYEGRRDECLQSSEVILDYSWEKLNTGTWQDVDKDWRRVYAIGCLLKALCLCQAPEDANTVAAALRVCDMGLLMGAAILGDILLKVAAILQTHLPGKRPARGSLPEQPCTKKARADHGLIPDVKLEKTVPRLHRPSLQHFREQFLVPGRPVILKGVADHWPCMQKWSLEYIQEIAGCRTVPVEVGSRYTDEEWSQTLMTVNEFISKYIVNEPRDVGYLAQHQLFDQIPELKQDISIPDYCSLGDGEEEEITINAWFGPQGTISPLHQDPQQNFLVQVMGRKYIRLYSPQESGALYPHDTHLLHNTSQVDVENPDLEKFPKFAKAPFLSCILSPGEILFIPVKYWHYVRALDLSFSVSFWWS
UniProt P02749, residues 20-345: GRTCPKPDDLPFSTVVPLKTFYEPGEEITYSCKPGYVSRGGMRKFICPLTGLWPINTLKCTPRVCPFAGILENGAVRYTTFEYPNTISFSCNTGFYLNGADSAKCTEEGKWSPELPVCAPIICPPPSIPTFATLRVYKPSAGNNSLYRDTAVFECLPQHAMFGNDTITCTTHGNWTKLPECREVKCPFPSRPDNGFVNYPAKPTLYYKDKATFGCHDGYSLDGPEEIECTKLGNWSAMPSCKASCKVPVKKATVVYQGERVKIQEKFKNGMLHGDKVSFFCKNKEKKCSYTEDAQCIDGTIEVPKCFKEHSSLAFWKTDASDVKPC
UniProt Q96LA8: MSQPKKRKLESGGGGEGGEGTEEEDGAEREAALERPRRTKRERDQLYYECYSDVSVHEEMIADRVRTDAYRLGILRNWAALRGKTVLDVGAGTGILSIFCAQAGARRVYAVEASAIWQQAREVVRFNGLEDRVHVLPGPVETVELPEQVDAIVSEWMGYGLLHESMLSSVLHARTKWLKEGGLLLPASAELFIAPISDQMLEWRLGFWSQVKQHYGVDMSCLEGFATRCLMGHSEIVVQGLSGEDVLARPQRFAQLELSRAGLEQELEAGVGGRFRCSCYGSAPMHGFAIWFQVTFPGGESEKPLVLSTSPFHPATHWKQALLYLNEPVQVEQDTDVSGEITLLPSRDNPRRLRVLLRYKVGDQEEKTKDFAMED

T1: ISY1 R3K (UniProt Q9ULR0)
T1 sequence: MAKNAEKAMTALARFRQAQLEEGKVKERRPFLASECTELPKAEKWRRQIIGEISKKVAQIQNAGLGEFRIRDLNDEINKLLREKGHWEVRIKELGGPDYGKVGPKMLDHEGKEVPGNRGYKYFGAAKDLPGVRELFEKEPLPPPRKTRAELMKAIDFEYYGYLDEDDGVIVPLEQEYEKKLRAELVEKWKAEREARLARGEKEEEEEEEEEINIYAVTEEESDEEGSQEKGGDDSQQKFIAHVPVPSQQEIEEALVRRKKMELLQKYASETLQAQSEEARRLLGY

T2: ISY1 R3A (UniProt Q9ULR0)
T2 sequence: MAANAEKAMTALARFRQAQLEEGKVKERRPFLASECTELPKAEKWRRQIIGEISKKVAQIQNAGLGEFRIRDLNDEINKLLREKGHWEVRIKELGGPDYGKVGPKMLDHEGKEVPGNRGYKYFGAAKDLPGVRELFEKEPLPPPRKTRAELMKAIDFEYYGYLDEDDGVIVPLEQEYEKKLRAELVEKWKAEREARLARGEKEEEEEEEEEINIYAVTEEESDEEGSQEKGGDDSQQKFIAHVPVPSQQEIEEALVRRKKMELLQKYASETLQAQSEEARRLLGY

T3: Flag-myc-ISY1 (UniProt Q9ULR0)
T3 sequence: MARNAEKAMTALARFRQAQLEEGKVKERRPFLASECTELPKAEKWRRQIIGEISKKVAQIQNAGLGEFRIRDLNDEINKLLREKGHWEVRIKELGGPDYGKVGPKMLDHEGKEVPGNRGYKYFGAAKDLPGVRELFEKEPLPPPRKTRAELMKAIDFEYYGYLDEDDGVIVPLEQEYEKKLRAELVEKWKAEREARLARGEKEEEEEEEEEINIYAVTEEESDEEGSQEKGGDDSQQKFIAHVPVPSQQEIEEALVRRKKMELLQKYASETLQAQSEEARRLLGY

B1: ISY1 (protein, UniProt Q9ULR0 1-285)
chain: MARNAEKAMTALARFRQAQLEEGKVKERRPFLASECTELPKAEKWRRQIIGEISKKVAQIQNAGLGEFRIRDLNDEINKLLREKGHWEVRIKELGGPDYGKVGPKMLDHEGKEVPGNRGYKYFGAAKDLPGVRELFEKEPLPPPRKTRAELMKAIDFEYYGYLDEDDGVIVPLEQEYEKKLRAELVEKWKAEREARLARGEKEEEEEEEEEINIYAVTEEESDEEGSQEKGGDDSQQKFIAHVPVPSQQEIEEALVRRKKMELLQKYASETLQAQSEEARRLLGY

Experiments:
Experiment in all cases: affinity purification with mass spectrometry
ISY1 R3K = target: T1, ISY1 R3K
ISY1 R3A = target: T2, ISY1 R3A
Flag-myc-ISY1 = target: T3, Flag-myc-ISY1
[1] = target: Flag-tagged H321A JMJD5 (human) (UniProt Q8N371)

Molecule	binding (ISY1 R3K)	binding (ISY1 R3A)	binding (Flag-myc-ISY1)	binding [1]
APOH (apolipoprotein H) (from UniProt P02749 20-345)	no binding	no binding	no binding	–
Protein Arginine N-methyltransferase 6 (PRMT6) (from UniProt Q96LA8 1-375) (enzyme)	no binding	no binding	–	–
Flag-tagged WT JMJD5 (from UniProt Q8N371 1-416) (enzyme)	no binding	no binding	–	–
Flag-tagged H321A JMJD5 (from UniProt Q8N371 1-416) (enzyme)	–	–	binds	–
B1	–	–	–	binds
